Patent US20240309110A1
These are yes or no findings as the source states them, for the method shown. Some entries that bind do so weakly or less than the wild type.

Key:
Test in all cases: glycopeptide microarray (20-mer MUC1 Tn-glycopeptides printed on a chip), RFU as heat map
[1] = target: T1, …
T1 sequence (peptide, S13 and T14 carry GalNAc (Tn), bold and underlined on the sheet): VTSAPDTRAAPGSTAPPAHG

[2] = target: T2, …; remark: listed apart in the source
T2 sequence (peptide, S13 and T14 carry GalNAc (Tn), bold and underlined on the sheet): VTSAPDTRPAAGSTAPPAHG

[3] = target: T3, …; remark: listed apart in the source
T3 sequence (peptide, S13 and T14 carry GalNAc (Tn), bold and underlined on the sheet): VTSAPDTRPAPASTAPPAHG

[4] = target: T4, …; remark: listed apart in the source
T4 sequence (peptide, T14 carries GalNAc (Tn), bold and underlined on the sheet): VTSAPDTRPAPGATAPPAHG

[5] = target: T5, …; remark: listed apart in the source
T5 sequence (peptide, S13 and T14 carry GalNAc (Tn), bold and underlined on the sheet): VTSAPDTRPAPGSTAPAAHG

[6] = target: T6, …; remark: listed apart in the source
T6 sequence (peptide, S13 and T14 carry GalNAc (Tn), bold and underlined on the sheet): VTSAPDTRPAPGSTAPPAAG

binding [1]: binds
binding [2]: binds
binding [3]: binds
binding [4]: binds
binding [5]: binds
binding [6]: binds
B1: scFv 5E5 (scFv, V domains shown)
VH: QSDAELVKPGSSVKISCKASGYTFTDHAIHWVKQKPEQGLEWIGHFSPGNTDIKYNDKFKGKATLTVDRSSSTAYMQLNSLTSEDSAVYFCKTSTFFFDYWGQGTTLTVSS
VL: ELVMTQSPSSLTVTAGEKVTMICKSSQSLLNSGDQKNYLTWYQQKPGQPPKLLIFWASTRESGVPDRFTGSGSGDFTLTISSVQAEDLAVYYCQNDYSYPLTFGAGTKLELK
